Results reported in PubChem BioAssay AID527 (NMMLSC, 2006).
The list shows a part of the results.

Experiment: blockers of AIP-driven agr signalling in S. aureus – RNAIII-GFP reporter, flow cytometry, primary screen (AID 527);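 also: 0% = AIP-stimulated control and 100% = unstimulated bacteria without AIP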
Conditions: S. aureus RN6390 RNAIII-GFP reporter, AIP-induced, flow cytometry 3 h; measured here: inhibition of GFP MFI; at 2 µM; stronger effect = higher value

Row | Structure (SMILES) | inhibition
1 | Cc1ccc(C)c(NP(C)(=O)Oc2ccccc2)c1 (centres undefined) | 6.4%
2 | CCOP1(=S)c2c(C)nn(CCC#N)c2N=C(c2ccccc2F)N1C (centres undefined) | -2.9%
3 | Cc1nn(-c2ccccc2)c2c1P(=O)(N1CCOCC1)N(C)C(c1ccccc1)=N2 (centres undefined) | 14.4%
4 | Clc1n[nH]nc1-c1nn[nH][15n]1 | 5.8%
5 | O=C(COc1ccccc1)OC1CN2CCC1CC2 (centres undefined) | -19.2%
6 | COP1(=S)c2c(C)nn(CCC#N)c2N=C(c2ccc(F)cc2)N1C (centres undefined) | -12.3%
7 | CP(=S)(Nn1cnnc1)Oc1ccccc1 (centres undefined) | -4.7%
8 | CP(=O)(Nc1ccccn1)Oc1ccccc1 (centres undefined) | 4.8%
9 | Cc1nc2ccc3ccccc3c2o1.O=[N+]([O-])c1cc([N+](=O)[O-])c(O)c([N+](=O)[O-])c1 | 4.4%
10 | CCc1nc2c(n1)c1c(non1O)c1c2no[n+]1[O-] | -6.3%
11 | O=P(Nc1nccs1)(c1ccccc1)c1ccccc1 | -6.3%
12 | Cc1ccccc1NP(C)(=O)Nc1ccccc1C | -5%
13 | CP(=O)(Nc1ccc2c(c1)OCCO2)Oc1ccccc1 (centres undefined) | -7.3%
14 | CN(C)CCOC(=O)C(O)(c1ccccc1)C1CCCCC1 (centres undefined) | 1%
